{
  "sequences": {"note": "Chains of the proteins cited; added tags and fusions are not shown.", "UniProt Q7TQN4": "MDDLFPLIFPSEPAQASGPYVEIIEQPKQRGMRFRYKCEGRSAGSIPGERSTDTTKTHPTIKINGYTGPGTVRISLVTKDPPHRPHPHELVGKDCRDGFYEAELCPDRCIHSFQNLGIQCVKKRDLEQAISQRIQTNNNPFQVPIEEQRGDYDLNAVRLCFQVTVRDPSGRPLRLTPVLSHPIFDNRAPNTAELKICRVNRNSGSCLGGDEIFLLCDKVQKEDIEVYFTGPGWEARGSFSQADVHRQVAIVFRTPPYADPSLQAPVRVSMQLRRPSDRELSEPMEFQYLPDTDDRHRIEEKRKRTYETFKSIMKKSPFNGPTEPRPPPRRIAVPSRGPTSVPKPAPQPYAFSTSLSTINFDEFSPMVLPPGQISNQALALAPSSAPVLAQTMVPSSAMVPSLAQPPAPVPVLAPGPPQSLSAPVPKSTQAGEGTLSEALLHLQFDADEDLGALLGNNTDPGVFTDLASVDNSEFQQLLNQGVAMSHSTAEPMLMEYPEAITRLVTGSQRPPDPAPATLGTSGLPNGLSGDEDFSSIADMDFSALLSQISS", "UniProt Q63746": "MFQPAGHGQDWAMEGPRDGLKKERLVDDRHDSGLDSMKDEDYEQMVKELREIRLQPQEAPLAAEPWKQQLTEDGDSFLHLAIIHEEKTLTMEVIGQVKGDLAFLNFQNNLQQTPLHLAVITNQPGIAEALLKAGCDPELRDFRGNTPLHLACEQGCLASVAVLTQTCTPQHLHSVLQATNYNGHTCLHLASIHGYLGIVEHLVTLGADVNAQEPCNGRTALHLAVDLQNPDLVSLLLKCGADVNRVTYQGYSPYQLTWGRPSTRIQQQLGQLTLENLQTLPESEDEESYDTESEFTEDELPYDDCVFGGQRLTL"},
  "source": "paper PMC5642611",
  "molecular_target": "RelA (P65) (rat (endogenous in PC12)) (UniProt Q7TQN4)",
  "assay": "co-IP; endogenous proteins in PC12 lysate; RIPA buffer (50 mM Tris pH 7.4, 150 mM NaCl, 1% NP-40, 0.25% sodium deoxycholate), protein A/G-sepharose, 4°C; cells treated with 0.6 mmol/L CoCl2 or 0.4 mmol/L H2O2 for 24h, with NC, miR-19a mimics or miR-19a mimics plus Flag-CYLD",
  "note": "No constants are given. Whether binding was seen depends on the method and setting. In cells and extracts the contact can be indirect. Some entries that bind do so weakly or less than the wild type.",
  "data": [
    {"substance": "IκBα (from UniProt Q63746 1-314)", "values": [
      {"measurement": "binding", "result": "binds"}
    ]}
  ]
}
